# Earlier results, collected in patent US20050153288A1, “Methods for identifying gibberellin responsive genes using cultured vegetable cells” (priority 2001, published 2005).
# Test system: α-amylase
# Settings: cited from earlier work
smiles,measurement,value
CN[C@@H]1C[C@H]2O[C@@](C)([C@@H]1OC)n1c3ccccc3c3c4c(c5c6ccccc6n2c5c31)C(=O)NC4 [staurosporine],inhibition of gibberellin's induction of α-amylase,hardly inhibited induction
